Data reported in the supplement of paper PMC10849652.
The list shows a part of the results.

Chains of the proteins cited; added tags and fusions are not shown. Lines headed by an entry give the natural chain unless they say otherwise; changes in a name come on top.
UniProt Q9H269: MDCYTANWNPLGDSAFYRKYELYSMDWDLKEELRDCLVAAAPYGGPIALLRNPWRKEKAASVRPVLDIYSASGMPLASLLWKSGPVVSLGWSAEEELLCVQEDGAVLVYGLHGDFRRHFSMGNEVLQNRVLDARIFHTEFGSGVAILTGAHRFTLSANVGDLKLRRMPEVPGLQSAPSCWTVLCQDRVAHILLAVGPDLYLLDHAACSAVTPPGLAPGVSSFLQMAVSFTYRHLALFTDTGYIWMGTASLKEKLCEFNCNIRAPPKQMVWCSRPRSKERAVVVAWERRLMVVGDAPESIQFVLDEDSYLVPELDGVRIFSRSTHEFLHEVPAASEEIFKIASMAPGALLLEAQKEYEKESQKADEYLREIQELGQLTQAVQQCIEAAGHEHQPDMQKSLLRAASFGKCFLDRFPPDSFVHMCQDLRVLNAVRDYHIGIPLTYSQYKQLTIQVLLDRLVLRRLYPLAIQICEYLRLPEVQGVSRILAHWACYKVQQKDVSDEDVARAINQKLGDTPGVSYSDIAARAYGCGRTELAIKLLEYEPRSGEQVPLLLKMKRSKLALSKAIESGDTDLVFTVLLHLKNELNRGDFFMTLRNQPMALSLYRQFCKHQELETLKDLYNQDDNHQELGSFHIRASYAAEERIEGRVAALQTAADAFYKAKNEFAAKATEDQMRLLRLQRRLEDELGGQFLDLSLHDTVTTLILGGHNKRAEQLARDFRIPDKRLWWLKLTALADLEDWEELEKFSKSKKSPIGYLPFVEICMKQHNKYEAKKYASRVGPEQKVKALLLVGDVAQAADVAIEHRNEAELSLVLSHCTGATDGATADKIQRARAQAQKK
UniProt Q9H4A3: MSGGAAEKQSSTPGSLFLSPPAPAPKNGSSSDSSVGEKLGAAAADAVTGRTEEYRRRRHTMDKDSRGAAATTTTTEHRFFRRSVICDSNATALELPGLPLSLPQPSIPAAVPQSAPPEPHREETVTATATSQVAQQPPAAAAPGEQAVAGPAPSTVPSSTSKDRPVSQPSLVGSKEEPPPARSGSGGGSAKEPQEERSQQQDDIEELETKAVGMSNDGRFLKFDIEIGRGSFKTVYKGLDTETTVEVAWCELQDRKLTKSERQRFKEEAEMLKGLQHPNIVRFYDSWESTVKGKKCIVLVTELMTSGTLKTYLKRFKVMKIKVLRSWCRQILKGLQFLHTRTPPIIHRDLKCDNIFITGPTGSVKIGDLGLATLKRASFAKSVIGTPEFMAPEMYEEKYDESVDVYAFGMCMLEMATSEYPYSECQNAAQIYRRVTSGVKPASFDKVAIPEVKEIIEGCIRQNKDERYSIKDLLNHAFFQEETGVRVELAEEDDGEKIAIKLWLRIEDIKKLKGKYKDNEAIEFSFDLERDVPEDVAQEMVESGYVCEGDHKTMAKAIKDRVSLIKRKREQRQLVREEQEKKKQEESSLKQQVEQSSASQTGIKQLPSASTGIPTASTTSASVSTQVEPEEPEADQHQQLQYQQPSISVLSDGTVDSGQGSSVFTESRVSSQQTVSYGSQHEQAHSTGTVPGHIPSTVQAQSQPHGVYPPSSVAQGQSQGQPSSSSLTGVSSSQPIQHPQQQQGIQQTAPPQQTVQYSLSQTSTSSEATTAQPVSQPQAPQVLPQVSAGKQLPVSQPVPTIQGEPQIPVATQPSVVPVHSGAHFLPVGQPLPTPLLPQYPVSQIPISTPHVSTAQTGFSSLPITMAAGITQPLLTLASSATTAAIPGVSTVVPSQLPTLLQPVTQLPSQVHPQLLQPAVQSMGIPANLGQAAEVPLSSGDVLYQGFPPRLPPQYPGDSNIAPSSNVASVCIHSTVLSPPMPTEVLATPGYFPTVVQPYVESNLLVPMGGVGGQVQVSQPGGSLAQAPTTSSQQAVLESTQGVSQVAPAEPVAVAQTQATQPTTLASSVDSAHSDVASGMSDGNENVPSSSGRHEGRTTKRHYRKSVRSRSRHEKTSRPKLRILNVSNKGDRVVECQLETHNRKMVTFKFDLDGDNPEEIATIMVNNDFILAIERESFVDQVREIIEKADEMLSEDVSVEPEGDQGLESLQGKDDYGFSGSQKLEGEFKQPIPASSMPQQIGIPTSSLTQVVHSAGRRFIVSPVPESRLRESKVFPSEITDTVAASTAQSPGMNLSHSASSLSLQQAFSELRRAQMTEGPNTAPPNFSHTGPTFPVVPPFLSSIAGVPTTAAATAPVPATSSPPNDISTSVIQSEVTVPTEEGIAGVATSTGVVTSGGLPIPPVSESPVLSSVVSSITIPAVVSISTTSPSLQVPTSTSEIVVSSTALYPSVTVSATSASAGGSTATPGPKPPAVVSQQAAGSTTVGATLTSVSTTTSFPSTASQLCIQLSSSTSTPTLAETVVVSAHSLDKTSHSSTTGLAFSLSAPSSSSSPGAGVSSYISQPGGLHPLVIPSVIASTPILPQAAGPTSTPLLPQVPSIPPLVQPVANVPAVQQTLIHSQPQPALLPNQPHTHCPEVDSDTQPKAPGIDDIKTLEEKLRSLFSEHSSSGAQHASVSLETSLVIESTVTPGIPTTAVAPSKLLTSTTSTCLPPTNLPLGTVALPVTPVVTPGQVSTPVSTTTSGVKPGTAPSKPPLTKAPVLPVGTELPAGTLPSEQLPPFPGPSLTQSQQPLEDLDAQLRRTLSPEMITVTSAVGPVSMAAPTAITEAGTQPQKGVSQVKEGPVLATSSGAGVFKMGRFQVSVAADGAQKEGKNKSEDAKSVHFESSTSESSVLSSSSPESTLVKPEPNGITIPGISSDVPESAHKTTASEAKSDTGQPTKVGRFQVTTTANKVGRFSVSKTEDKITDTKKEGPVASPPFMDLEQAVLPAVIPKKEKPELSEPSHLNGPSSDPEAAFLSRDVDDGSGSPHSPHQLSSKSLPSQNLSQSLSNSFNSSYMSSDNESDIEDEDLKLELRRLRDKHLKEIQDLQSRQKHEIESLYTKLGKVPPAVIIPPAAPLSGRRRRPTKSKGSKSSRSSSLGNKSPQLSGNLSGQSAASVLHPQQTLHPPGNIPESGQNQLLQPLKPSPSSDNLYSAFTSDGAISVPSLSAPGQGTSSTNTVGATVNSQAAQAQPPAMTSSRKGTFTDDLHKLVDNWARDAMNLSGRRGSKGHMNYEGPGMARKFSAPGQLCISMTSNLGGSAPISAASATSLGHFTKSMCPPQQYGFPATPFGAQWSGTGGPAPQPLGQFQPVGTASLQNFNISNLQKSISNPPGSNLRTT
UniProt Q8N3P4: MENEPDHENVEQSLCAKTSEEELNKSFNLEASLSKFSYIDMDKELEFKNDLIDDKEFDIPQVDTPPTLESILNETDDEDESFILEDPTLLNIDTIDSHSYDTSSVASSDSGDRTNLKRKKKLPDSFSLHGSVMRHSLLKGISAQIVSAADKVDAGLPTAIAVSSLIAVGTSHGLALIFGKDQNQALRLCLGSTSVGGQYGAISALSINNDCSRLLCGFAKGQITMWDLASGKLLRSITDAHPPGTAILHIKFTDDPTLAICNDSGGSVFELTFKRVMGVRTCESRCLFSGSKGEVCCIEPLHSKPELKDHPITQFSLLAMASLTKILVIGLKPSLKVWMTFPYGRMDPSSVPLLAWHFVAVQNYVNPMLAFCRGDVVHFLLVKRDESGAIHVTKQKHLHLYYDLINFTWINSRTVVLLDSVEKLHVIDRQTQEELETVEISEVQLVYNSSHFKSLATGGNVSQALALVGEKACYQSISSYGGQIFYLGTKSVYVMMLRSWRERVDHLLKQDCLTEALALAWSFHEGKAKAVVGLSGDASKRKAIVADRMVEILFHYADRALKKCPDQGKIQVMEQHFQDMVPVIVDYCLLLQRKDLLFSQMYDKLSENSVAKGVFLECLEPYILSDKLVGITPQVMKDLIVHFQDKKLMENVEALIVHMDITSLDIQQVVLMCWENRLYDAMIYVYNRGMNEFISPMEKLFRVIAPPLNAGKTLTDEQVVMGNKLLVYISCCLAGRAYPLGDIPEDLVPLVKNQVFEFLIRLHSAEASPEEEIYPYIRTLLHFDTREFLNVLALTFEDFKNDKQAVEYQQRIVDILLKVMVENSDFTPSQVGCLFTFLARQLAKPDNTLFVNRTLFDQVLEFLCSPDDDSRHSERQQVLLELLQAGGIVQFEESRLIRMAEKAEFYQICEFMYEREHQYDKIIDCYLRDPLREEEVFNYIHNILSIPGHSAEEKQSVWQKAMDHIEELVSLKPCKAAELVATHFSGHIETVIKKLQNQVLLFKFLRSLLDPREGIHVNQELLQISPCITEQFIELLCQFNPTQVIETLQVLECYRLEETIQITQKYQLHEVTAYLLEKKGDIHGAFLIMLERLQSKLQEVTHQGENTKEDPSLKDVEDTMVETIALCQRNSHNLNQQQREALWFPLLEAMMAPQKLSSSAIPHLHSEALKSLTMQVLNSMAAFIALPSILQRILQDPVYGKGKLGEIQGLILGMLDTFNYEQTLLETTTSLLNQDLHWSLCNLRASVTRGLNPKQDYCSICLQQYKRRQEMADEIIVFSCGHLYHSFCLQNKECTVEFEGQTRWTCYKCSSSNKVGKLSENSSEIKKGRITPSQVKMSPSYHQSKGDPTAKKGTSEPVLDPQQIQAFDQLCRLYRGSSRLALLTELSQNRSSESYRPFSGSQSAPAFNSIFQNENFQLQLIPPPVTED
UniProt Q9UNX4: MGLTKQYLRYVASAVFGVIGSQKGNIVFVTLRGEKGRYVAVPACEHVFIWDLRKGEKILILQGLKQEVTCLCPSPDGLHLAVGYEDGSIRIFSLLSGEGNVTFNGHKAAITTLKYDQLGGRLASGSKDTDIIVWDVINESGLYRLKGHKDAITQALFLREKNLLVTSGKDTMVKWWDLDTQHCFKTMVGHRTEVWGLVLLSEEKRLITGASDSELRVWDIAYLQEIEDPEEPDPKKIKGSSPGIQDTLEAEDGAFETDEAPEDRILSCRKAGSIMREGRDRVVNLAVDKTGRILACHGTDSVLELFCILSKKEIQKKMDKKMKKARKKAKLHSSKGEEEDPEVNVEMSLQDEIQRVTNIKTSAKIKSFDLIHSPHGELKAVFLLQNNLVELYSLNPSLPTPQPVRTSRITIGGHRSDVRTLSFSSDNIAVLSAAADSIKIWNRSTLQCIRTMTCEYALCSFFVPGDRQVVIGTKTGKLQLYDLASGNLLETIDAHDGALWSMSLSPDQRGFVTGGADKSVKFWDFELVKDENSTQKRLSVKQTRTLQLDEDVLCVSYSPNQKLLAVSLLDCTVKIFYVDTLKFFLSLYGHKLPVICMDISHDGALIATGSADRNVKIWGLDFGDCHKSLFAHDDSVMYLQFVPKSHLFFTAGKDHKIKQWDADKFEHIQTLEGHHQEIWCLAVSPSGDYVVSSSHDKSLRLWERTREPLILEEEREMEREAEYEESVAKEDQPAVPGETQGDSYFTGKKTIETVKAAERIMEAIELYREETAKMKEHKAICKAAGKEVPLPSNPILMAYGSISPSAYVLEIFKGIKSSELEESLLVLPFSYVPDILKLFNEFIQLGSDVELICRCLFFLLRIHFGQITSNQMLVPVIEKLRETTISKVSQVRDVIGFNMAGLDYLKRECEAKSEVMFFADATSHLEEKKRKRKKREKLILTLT
UniProt Q6VEQ5: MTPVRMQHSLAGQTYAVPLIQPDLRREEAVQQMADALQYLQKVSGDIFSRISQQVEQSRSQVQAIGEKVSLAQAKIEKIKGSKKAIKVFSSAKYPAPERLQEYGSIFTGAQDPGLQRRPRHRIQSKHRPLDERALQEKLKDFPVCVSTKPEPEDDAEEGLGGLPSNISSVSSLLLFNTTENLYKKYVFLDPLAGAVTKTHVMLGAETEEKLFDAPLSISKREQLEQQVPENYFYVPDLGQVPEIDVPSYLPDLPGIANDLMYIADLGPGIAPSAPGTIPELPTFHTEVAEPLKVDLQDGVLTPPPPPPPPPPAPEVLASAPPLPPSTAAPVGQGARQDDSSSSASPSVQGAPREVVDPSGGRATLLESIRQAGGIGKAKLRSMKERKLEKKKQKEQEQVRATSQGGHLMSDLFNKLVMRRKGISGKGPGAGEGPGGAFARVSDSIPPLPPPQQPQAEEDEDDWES
UniProt Q86Y07: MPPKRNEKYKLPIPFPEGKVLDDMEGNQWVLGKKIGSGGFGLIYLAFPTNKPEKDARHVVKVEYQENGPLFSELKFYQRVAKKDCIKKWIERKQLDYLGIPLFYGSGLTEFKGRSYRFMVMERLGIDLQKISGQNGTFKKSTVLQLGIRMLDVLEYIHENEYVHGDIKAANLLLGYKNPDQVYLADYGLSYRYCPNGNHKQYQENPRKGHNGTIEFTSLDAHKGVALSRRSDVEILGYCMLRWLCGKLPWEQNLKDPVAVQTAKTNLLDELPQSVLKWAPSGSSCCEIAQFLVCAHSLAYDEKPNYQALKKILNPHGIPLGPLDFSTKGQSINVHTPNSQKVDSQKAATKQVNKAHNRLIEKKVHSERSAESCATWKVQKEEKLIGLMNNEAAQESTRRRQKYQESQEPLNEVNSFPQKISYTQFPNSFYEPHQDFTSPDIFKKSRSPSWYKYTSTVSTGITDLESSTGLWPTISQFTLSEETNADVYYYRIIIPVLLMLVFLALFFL

Key:
Assay in all cases: log2 fold change, soluble protein after heating vs DMSO (PISA); higher = thermal stabilisation; K562 lysate, 10 uM; active = over 0.2 and 3.5 SD of the protein, either way, in both replicates (recomputed)
lapatinib = compound: CS(=O)(=O)CCNCc1ccc(-c2ccc3ncnc(Nc4ccc(OCc5cccc(F)c5)c(Cl)c4)c3c2)o1 [lapatinib]
In short: (§1)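 K562 pellets were dounce-homogenised in PBS pH 7.4 containing 1 mM MgCl2, and the crude extract, at 1 mg/mL protein, was exposed to 10 μM compound for 30 min. Aliquots were heated for 3 min across 48°C-58°C, pooled, brought to 0.5% NP-40 at 4°C and spun at 21,000xg for 90 min, with the supernatant taken as soluble protein. TMTpro 16plex LC-MS/MS with equalised channel sums quantified that protein. Values are log-two fold changes in thermal stability relative to solvent controls, taken from duplicates.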

pictilisib = compound: CS(=O)(=O)N1CCN(Cc2cc3nc(-c4cccc5[nH]ncc45)nc(N4CCOCC4)c3s2)CC1 [pictilisib]
In short: as §1

crizotinib = compound: C[C@@H](Oc1cc(-c2cnn(C3CCNCC3)c2)cnc1N)c1c(Cl)ccc(F)c1Cl [crizotinib]
In short: as §1

[1] = compound: C[C@H](C1=CC=C(C=C1)C(=O)NC2=C3C=CNC3=NC=C2)N
In short: as §1

duvelisib = compound: C[C@H](Nc1ncnc2nc[nH]c12)c1cc2cccc(Cl)c2c(=O)n1-c1ccccc1 [duvelisib]
In short: as §1

gandotinib = compound: Cc1cc(Nc2cc(CN3CCOCC3)c3nc(C)c(Cc4ccc(Cl)cc4F)n3n2)n[nH]1 [gandotinib]
In short: as §1

tozasertib = compound: Cc1cc(Nc2cc(N3CCN(C)CC3)nc(Sc3ccc(NC(=O)C4CC4)cc3)n2)n[nH]1 [tozasertib]
In short: as §1

doramapimod = compound: Cc1ccc(-n2nc(C(C)(C)C)cc2NC(=O)Nc2ccc(OCCN3CCOCC3)c3ccccc23)cc1 [doramapimod]
In short: as §1

bafetinib = compound: Cc1ccc(NC(=O)c2ccc(CN3CC[C@H](N(C)C)C3)c(C(F)(F)F)c2)cc1Nc1nccc(-c2cncnc2)n1 [bafetinib]
In short: as §1

[2] = compound: Cc1cccc(CC(=O)N2CCc3c2ccc(-c2cn(C)c4ncnc(N)c24)c3F)n1
In short: as §1

Measured: log2 fold change

VPS16 (UniProt Q9H269)
inactive: lapatinib -0.014 | pictilisib 0.005 | crizotinib -0.08 | [1] -0.019 | duvelisib 0.013 | gandotinib -0.024 | tozasertib 0.004 | doramapimod -0.013 | bafetinib -0.051 | [2] 0.03

WNK1 isoform 7 (UniProt Q9H4A3)
inactive: lapatinib -0.014 | pictilisib -0.02 | crizotinib 0.019 | [1] 0.018 | duvelisib -0.036 | gandotinib -0.031 | tozasertib 0.036 | doramapimod 0.009 | bafetinib -0.025 | [2] 0.005

WDR18 (UniProt Q9BV38)
inactive: lapatinib -0.018 | pictilisib -0.018 | crizotinib -0.015 | [1] -0.046 | duvelisib -0.054 | gandotinib 0.083 | tozasertib 0.024 | doramapimod 0.041 | bafetinib -0.047 | [2] 0.012

WDR37 isoform 2 (UniProt Q9Y2I8)
inactive: lapatinib -0.001 | pictilisib -0.014 | crizotinib -0.002 | [1] 0.088 | duvelisib 0.02 | gandotinib -0.091 | tozasertib 0.005 | doramapimod 0.025 | bafetinib -0.062 | [2] 0.019

Quoted at random: two records from the list
WDR18 (UniProt Q9BV38)
inactive: lapatinib -0.018 | pictilisib -0.018 | crizotinib -0.015 | [1] -0.046 | duvelisib -0.054 | gandotinib 0.083 | tozasertib 0.024 | doramapimod 0.041 | bafetinib -0.047 | [2] 0.012

VPS16 (UniProt Q9H269)
inactive: lapatinib -0.014 | pictilisib 0.005 | crizotinib -0.08 | [1] -0.019 | duvelisib 0.013 | gandotinib -0.024 | tozasertib 0.004 | doramapimod -0.013 | bafetinib -0.051 | [2] 0.03

(cont.)

WARS2 (UniProt Q9UGM6)
inactive: lapatinib 0.026 | pictilisib 0.054 | crizotinib -0.004 | [1] 0.012 | duvelisib -0.022 | gandotinib 0.052 | tozasertib -0.012 | doramapimod -0.038 | bafetinib -0.133 | [2] 0.016

WTAP (UniProt Q15007)
inactive: lapatinib 0.008 | pictilisib -0.039 | crizotinib -0.002 | [1] -0.025 | duvelisib 0.053 | gandotinib -0.007 | tozasertib 0.032 | doramapimod -0.004 | bafetinib -0.043 | [2] 0.016

WDR11 (UniProt Q9BZH6)
inactive: lapatinib -0.037 | pictilisib 0.013 | crizotinib -0.105 | [1] -0.266 | duvelisib 0.043 | gandotinib 0.102 | tozasertib 0.053 | doramapimod 0.053 | bafetinib -0.155 | [2] 0.143

VPS8 (UniProt Q8N3P4)
inactive: lapatinib -0.044 | pictilisib -0.023 | crizotinib -0.007 | [1] -0.064 | duvelisib 0.01 | gandotinib -0.073 | tozasertib 0.053 | doramapimod 0.002 | bafetinib -0.055 | [2] 0.076

VSIR (UniProt Q9H7M9)
inactive: lapatinib 0.004 | pictilisib 0.036 | crizotinib 0.09 | [1] -0.069 | duvelisib 0.012 | gandotinib 0.034 | tozasertib -0.008 | doramapimod 0.033 | bafetinib 0.01 | [2] -0.026

WASHC2A (UniProt Q641Q2)
inactive: lapatinib 0.013 | pictilisib 0.005 | crizotinib 0.004 | [1] -0.022 | duvelisib -0.013 | gandotinib 0.026 | tozasertib 0.016 | doramapimod -0.009 | bafetinib -0.013 | [2] -0.001

WDR3 (UniProt Q9UNX4)
inactive: lapatinib -0.012 | pictilisib -0.113 | crizotinib -0.003 | [1] -0.054 | duvelisib 0.008 | gandotinib -0.022 | tozasertib 0.003 | doramapimod 0.01 | bafetinib -0.083 | [2] 0.14

VPS4B (UniProt O75351)
inactive: lapatinib 0.012 | pictilisib 0 | crizotinib 0.029 | [1] 0.045 | duvelisib -0.008 | gandotinib -0.095 | tozasertib 0.002 | doramapimod 0.02 | bafetinib 0.064 | [2] -0.061

VMA21 (UniProt Q3ZAQ7)
inactive: lapatinib 0.063 | pictilisib 0.079 | crizotinib -0.095 | [1] 0.171 | duvelisib -0.057 | gandotinib -0.061 | tozasertib -0.005 | doramapimod 0.098 | bafetinib 0.078 | [2] -0.049

WASH2P (UniProt Q6VEQ5)
inactive: lapatinib -0.022 | pictilisib -0.074 | crizotinib -0.003 | [1] 0.016 | duvelisib -0.008 | gandotinib 0.016 | tozasertib 0.068 | doramapimod -0.013 | bafetinib -0.062 | [2] -0.046

VRK2 (UniProt Q86Y07)
inactive: lapatinib 0.03 | pictilisib 0.002 | crizotinib -0.069 | duvelisib -0.016 | gandotinib -0.04 | tozasertib -0.026 | doramapimod -0.063 | bafetinib -0.03 | [2] 0.03
active: [1] 0.353
